# Results published in the supplement of paper PMC8728848.
# This is one part of the list.
# Legend:
# Assay in all cases: glycan array binding signal (z-score within array); higher = stronger binding
# Conditions in all cases: glycan notation: IUPAC condensed, linker removed
# [1] = target: Gal(b1-4)GlcNAc(b1-2)[Gal(b1-4)GlcNAc(b1-6)]Man(a1-6)[GlcNAc(b1-4)][Gal(b1-4)GlcNAc(b1-2)Man(a1-3)]Man(b1-4)GlcNAc(b1-4)GlcNAc
# Method in brief: (§1)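 Glycan array data were curated from 3228 arrays in the Consortium for Functional Glycomics database and kept only where the protein sequence was available. Glycan names were converted to IUPAC-condensed notation, and columns mapping to the same glycan were averaged. The binding signal is a within-array Z-score, averaged across arrays of the same protein sequence at different concentrations or buffers and across linkers. Negative Z-scores can be read as non-binding.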
# [2] = target: Gal(b1-4)GlcNAc(b1-2)[Gal(b1-4)GlcNAc(b1-6)]Man(a1-6)[GlcNAc(b1-4)][Gal(b1-4)GlcNAc(b1-2)[Gal(b1-4)GlcNAc(b1-4)]Man(a1-3)]Man(b1-4)GlcNAc(b1-4)[Fuc(a1-6)]GlcNAc
# Method in brief: as §1
# [3] = target: Gal(b1-4)GlcNAc(b1-3)Gal(b1-3)GalNAc
# Method in brief: as §1
# [4] = target: Gal(b1-4)GlcNAc(b1-3)Gal(b1-3)GlcNAc
# Method in brief: as §1
# [5] = target: Gal(b1-4)GlcNAc(b1-3)Gal(b1-4)Glc
# Method in brief: as §1
# [6] = target: Gal(b1-4)GlcNAc(b1-3)Gal(b1-4)GlcNAc
# Method in brief: as §1
# [7] = target: Gal(b1-4)GlcNAc(b1-3)Gal(b1-4)GlcNAc(b1-2)Man(a1-3)[Gal(b1-4)GlcNAc(b1-3)Gal(b1-4)GlcNAc(b1-2)Man(a1-6)]Man(b1-4)GlcNAc(b1-4)GlcNAc
# Method in brief: as §1
# [8] = target: Gal(b1-4)GlcNAc(b1-3)Gal(b1-4)GlcNAc(b1-2)Man(a1-3)[Gal(b1-4)GlcNAc(b1-3)Gal(b1-4)GlcNAc(b1-2)Man(a1-6)]Man(b1-4)GlcNAc(b1-4)[Fuc(a1-6)]GlcNAc
# Method in brief: as §1
# [9] = target: Gal(b1-4)GlcNAc(b1-3)Gal(b1-4)GlcNAc(b1-2)[Gal(b1-4)GlcNAc(b1-3)Gal(b1-4)GlcNAc(b1-6)]Man(a1-6)[Gal(b1-4)GlcNAc(b1-3)Gal(b1-4)GlcNAc(b1-2)Man(a1-3)]Man(b1-4)GlcNAc(b1-4)GlcNAc
# Method in brief: as §1
# [10] = target: Gal(b1-4)GlcNAc(b1-3)Gal(b1-4)GlcNAc(b1-2)[Gal(b1-4)GlcNAc(b1-3)Gal(b1-4)GlcNAc(b1-6)]Man(a1-6)[Gal(b1-4)GlcNAc(b1-3)Gal(b1-4)GlcNAc(b1-2)Man(a1-3)]Man(b1-4)GlcNAc(b1-4)[Fuc(a1-6)]GlcNAc
# Method in brief: as §1
# [11] = target: Gal(b1-4)GlcNAc(b1-3)Gal(b1-4)GlcNAc(b1-3)Gal(b1-4)GlcNAc
# Method in brief: as §1
# [12] = target: Gal(b1-4)GlcNAc(b1-3)Gal(b1-4)GlcNAc(b1-3)Gal(b1-4)GlcNAc(b1-2)Man(a1-3)[Gal(b1-4)GlcNAc(b1-3)Gal(b1-4)GlcNAc(b1-3)Gal(b1-4)GlcNAc(b1-2)Man(a1-6)]Man(b1-4)GlcNAc(b1-4)GlcNAc
# Method in brief: as §1
# [13] = target: Gal(b1-4)GlcNAc(b1-3)Gal(b1-4)GlcNAc(b1-3)Gal(b1-4)GlcNAc(b1-2)Man(a1-3)[Gal(b1-4)GlcNAc(b1-3)Gal(b1-4)GlcNAc(b1-3)Gal(b1-4)GlcNAc(b1-2)Man(a1-6)]Man(b1-4)GlcNAc(b1-4)[Fuc(a1-6)]GlcNAc
# Method in brief: as §1
# [14] = target: Gal(b1-4)GlcNAc(b1-3)Gal(b1-4)GlcNAc(b1-3)Gal(b1-4)GlcNAc(b1-2)[Gal(b1-4)GlcNAc(b1-3)Gal(b1-4)GlcNAc(b1-3)Gal(b1-4)GlcNAc(b1-6)]Man(a1-6)[Gal(b1-4)GlcNAc(b1-3)Gal(b1-4)GlcNAc(b1-3)Gal(b1-4)GlcNAc(b1-2)Man(a1-3)]Man(b1-4)GlcNAc(b1-4)[Fuc(a1-6)]GlcNAc
# Method in brief: as §1
# [15] = target: Gal(b1-4)GlcNAc(b1-3)Gal(b1-4)GlcNAc(b1-3)Gal(b1-4)GlcNAc(b1-3)Gal(b1-4)GlcNAc(b1-2)Man(a1-3)[Gal(b1-4)GlcNAc(b1-3)Gal(b1-4)GlcNAc(b1-3)Gal(b1-4)GlcNAc(b1-3)Gal(b1-4)GlcNAc(b1-2)Man(a1-6)]Man(b1-4)GlcNAc(b1-4)GlcNAc
# Method in brief: as §1
# [16] = target: Gal(b1-4)GlcNAc(b1-3)Gal(b1-4)GlcNAc(b1-3)Gal(b1-4)GlcNAc(b1-3)Gal(b1-4)GlcNAc(b1-2)Man(a1-3)[Gal(b1-4)GlcNAc(b1-3)Gal(b1-4)GlcNAc(b1-3)Gal(b1-4)GlcNAc(b1-3)Gal(b1-4)GlcNAc(b1-2)Man(a1-6)]Man(b1-4)GlcNAc(b1-4)[Fuc(a1-6)]GlcNAc
# Method in brief: as §1
# [17] = target: Gal(b1-4)GlcNAc(b1-3)Gal(b1-4)GlcNAc(b1-3)Gal(b1-4)GlcNAc(b1-3)Gal(b1-4)GlcNAc(b1-2)[Gal(b1-4)GlcNAc(b1-3)Gal(b1-4)GlcNAc(b1-3)Gal(b1-4)GlcNAc(b1-3)Gal(b1-4)GlcNAc(b1-6)]Man(a1-6)[Gal(b1-4)GlcNAc(b1-3)Gal(b1-4)GlcNAc(b1-3)Gal(b1-4)GlcNAc(b1-3)Gal(b1-4)GlcNAc(b1-2)Man(a1-3)]Man(b1-4)GlcNAc(b1-4)[Fuc(a1-6)]GlcNAc
# Method in brief: as §1
# [18] = target: Gal(b1-4)GlcNAc(b1-3)Gal(b1-4)GlcNAc(b1-3)Gal(b1-4)GlcNAc(b1-3)Gal(b1-4)GlcNAc(b1-3)Gal(b1-4)GlcNAc(b1-2)Man(a1-3)[Gal(b1-4)GlcNAc(b1-3)Gal(b1-4)GlcNAc(b1-3)Gal(b1-4)GlcNAc(b1-3)Gal(b1-4)GlcNAc(b1-3)Gal(b1-4)GlcNAc(b1-2)Man(a1-6)]Man(b1-4)GlcNAc(b1-4)GlcNAc
# Method in brief: as §1
# [19] = target: Gal(b1-4)GlcNAc(b1-3)Gal(b1-4)GlcNAc(b1-3)Gal(b1-4)GlcNAc(b1-3)Gal(b1-4)GlcNAc(b1-3)Gal(b1-4)GlcNAc(b1-2)Man(a1-3)[Gal(b1-4)GlcNAc(b1-3)Gal(b1-4)GlcNAc(b1-3)Gal(b1-4)GlcNAc(b1-3)Gal(b1-4)GlcNAc(b1-3)Gal(b1-4)GlcNAc(b1-2)Man(a1-6)]Man(b1-4)GlcNAc(b1-4)[Fuc(a1-6)]GlcNAc
# Method in brief: as §1
# [20] = target: Gal(b1-4)GlcNAc(b1-3)Gal(b1-4)GlcNAc(b1-3)Gal(b1-4)GlcNAc(b1-3)Gal(b1-4)GlcNAc(b1-3)Gal(b1-4)GlcNAc(b1-2)[Gal(b1-4)GlcNAc(b1-3)Gal(b1-4)GlcNAc(b1-3)Gal(b1-4)GlcNAc(b1-3)Gal(b1-4)GlcNAc(b1-3)Gal(b1-4)GlcNAc(b1-6)]Man(a1-6)[Gal(b1-4)GlcNAc(b1-3)Gal(b1-4)GlcNAc(b1-3)Gal(b1-4)GlcNAc(b1-3)Gal(b1-4)GlcNAc(b1-3)Gal(b1-4)GlcNAc(b1-2)Man(a1-3)]Man(b1-4)GlcNAc(b1-4)[Fuc(a1-6)]GlcNAc
# Method in brief: as §1
# [21] = target: Gal(b1-4)GlcNAc(b1-3)Gal(b1-4)GlcNAc(b1-3)Gal(b1-4)GlcNAc(b1-3)Gal(b1-4)GlcNAc(b1-3)Gal(b1-4)GlcNAc(b1-3)Gal(b1-4)GlcNAc(b1-2)Man(a1-3)[Gal(b1-4)GlcNAc(b1-3)Gal(b1-4)GlcNAc(b1-3)Gal(b1-4)GlcNAc(b1-3)Gal(b1-4)GlcNAc(b1-3)Gal(b1-4)GlcNAc(b1-3)Gal(b1-4)GlcNAc(b1-2)Man(a1-6)]Man(b1-4)GlcNAc(b1-4)GlcNAc
# Method in brief: as §1
# [22] = target: Gal(b1-4)GlcNAc(b1-3)Gal(b1-4)GlcNAc(b1-3)GalNAc
# Method in brief: as §1
# [23] = target: Gal(b1-4)GlcNAc(b1-3)Gal(b1-4)GlcNAc(b1-3)[Gal(b1-4)GlcNAc(b1-3)Gal(b1-4)GlcNAc(b1-6)]GalNAc
# Method in brief: as §1
binder,measurement,setting,value
EUL D1A second (Oryza sativa) (protein) GAATACTIGGVPVHTVRVFSAAGEDYCLTVRNGTACLAPKNPRDDYQHWIKDMRHSNKIRDEEGYPAFALVNKVTGEAIKHSTGQGHPVKLVPYNPEYQDESVLWTESKDVGKGFRCIRMVNNIYLNFDAFHGDKDHGGIHDGTEIVLWKWCEGDNQRWKILPWILEQKLISEEDLNSAVDHHHHHH,glycan array binding signal (z-score),[1],-0.799
same,glycan array binding signal (z-score),[2],-0.544
same,glycan array binding signal (z-score),[3],0.849
same,glycan array binding signal (z-score),[4],-0.245
same,glycan array binding signal (z-score),[5],-0.283
same,glycan array binding signal (z-score),[6],-0.532
same,glycan array binding signal (z-score),[7],-0.276
same,glycan array binding signal (z-score),[8],1.13
same,glycan array binding signal (z-score),[9],0.486
same,glycan array binding signal (z-score),[10],3.31
same,glycan array binding signal (z-score),[11],0.445
same,glycan array binding signal (z-score),[12],0.087
same,glycan array binding signal (z-score),[13],1.62
same,glycan array binding signal (z-score),[14],1.59
same,glycan array binding signal (z-score),[15],0.694
same,glycan array binding signal (z-score),[16],1.04
same,glycan array binding signal (z-score),[17],0.438
same,glycan array binding signal (z-score),[18],0.641
same,glycan array binding signal (z-score),[19],0.004
same,glycan array binding signal (z-score),[20],1.52
same,glycan array binding signal (z-score),[21],0.069
same,glycan array binding signal (z-score),[22],0.955
same,glycan array binding signal (z-score),[23],1.33

# 2 entries from above, set out differently.
binder	measurement	setting	value
EUL D1A second (Oryza sativa) (protein) GAATACTIGGVPVHTVRVFSAAGEDYCLTVRNGTACLAPKNPRDDYQHWIKDMRHSNKIRDEEGYPAFALVNKVTGEAIKHSTGQGHPVKLVPYNPEYQDESVLWTESKDVGKGFRCIRMVNNIYLNFDAFHGDKDHGGIHDGTEIVLWKWCEGDNQRWKILPWILEQKLISEEDLNSAVDHHHHHH	glycan array binding signal (z-score)	[14]	1.59
same	glycan array binding signal (z-score)	[15]	0.694
